This is a selection; strong and weak results do not stand in their true shares.

The chains behind the UniProt entries cited, without tags or fusion partners. Where a name states a change or a piece, a line headed by the entry shows the natural chain unless it says otherwise.
UniProt P09382, whole entry, looked up: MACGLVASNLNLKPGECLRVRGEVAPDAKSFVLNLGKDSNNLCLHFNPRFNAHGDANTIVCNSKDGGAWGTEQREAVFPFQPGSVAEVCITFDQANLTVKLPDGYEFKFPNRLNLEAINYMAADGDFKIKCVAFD
UniProt P14316: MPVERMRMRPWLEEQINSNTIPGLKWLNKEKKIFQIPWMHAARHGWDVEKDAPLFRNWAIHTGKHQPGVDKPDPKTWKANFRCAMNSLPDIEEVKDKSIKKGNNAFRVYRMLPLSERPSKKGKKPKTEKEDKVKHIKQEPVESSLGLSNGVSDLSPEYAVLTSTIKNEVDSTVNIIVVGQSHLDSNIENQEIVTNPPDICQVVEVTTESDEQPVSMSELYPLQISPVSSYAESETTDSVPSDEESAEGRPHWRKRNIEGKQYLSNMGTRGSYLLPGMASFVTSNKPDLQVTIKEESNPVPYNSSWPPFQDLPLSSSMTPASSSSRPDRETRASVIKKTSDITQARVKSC
UniProt P14618, whole entry, looked up: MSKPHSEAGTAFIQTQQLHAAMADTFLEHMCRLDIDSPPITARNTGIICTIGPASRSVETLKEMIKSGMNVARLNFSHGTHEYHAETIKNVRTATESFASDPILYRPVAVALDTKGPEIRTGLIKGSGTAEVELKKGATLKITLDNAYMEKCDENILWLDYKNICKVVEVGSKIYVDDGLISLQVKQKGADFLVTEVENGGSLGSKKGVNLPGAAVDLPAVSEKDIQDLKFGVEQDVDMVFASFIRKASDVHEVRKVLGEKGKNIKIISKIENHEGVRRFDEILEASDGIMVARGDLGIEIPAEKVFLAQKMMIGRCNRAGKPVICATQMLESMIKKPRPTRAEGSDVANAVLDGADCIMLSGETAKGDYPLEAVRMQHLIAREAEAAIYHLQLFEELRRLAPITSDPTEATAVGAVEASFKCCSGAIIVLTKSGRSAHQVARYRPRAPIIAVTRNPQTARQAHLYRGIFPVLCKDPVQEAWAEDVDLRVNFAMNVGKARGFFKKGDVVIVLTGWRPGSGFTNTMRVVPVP
UniProt P16152: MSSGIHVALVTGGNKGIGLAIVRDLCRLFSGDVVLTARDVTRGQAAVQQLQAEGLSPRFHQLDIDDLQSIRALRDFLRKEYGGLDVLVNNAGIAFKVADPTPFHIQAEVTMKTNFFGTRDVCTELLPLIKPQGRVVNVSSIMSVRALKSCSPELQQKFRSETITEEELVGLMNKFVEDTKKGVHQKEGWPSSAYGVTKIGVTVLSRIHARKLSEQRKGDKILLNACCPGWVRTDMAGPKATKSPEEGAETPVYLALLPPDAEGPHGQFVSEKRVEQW
UniProt P11766: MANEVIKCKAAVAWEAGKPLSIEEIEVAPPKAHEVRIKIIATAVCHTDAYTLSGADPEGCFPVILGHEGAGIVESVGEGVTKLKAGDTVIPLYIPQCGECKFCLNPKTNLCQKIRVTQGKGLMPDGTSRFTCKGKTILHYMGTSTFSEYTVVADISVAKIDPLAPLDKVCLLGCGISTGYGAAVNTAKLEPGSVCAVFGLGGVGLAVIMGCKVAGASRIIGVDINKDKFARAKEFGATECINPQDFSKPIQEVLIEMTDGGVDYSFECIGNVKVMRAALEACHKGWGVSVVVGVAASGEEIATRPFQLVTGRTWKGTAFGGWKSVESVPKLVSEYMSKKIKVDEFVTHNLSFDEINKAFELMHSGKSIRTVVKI
UniProt P13995: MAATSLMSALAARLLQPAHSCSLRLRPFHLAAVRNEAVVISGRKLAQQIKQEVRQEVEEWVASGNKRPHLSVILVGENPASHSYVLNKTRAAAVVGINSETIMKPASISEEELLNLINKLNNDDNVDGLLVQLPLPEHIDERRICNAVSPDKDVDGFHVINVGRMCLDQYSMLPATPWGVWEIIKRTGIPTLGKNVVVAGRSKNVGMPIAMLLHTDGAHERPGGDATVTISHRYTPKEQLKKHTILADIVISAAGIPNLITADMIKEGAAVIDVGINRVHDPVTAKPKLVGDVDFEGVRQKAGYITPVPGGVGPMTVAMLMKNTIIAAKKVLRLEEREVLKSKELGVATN
UniProt P13010: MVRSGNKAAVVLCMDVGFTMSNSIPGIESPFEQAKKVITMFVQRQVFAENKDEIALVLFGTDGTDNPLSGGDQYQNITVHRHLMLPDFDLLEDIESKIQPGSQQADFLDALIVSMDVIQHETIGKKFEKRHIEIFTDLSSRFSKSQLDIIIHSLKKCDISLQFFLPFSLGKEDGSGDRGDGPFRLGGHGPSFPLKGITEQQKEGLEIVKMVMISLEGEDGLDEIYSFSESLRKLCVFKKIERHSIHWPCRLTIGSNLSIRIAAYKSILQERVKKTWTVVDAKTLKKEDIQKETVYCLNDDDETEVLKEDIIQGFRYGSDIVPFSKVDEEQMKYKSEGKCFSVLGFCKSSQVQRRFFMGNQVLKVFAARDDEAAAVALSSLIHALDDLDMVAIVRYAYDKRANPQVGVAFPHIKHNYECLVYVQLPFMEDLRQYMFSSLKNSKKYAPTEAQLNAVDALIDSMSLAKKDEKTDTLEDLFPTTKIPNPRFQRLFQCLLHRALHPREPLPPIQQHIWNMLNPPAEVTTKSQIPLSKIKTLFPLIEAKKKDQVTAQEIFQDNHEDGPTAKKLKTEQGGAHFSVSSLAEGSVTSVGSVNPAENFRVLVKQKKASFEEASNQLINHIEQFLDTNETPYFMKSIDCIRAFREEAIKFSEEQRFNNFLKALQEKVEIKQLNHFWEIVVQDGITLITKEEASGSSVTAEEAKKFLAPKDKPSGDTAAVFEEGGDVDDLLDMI
UniProt P09543: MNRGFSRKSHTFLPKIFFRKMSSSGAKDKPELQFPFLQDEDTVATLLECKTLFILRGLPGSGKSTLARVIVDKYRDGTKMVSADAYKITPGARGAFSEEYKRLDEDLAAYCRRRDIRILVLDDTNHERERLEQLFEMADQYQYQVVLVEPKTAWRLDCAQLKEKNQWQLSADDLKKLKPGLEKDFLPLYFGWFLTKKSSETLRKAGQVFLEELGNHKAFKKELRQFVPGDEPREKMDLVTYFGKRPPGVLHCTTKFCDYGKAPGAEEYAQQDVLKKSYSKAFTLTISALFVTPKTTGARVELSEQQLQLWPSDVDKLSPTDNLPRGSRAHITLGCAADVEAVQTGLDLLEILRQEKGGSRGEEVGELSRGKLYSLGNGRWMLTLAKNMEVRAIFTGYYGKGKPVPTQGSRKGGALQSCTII
UniProt P11717, whole entry, looked up: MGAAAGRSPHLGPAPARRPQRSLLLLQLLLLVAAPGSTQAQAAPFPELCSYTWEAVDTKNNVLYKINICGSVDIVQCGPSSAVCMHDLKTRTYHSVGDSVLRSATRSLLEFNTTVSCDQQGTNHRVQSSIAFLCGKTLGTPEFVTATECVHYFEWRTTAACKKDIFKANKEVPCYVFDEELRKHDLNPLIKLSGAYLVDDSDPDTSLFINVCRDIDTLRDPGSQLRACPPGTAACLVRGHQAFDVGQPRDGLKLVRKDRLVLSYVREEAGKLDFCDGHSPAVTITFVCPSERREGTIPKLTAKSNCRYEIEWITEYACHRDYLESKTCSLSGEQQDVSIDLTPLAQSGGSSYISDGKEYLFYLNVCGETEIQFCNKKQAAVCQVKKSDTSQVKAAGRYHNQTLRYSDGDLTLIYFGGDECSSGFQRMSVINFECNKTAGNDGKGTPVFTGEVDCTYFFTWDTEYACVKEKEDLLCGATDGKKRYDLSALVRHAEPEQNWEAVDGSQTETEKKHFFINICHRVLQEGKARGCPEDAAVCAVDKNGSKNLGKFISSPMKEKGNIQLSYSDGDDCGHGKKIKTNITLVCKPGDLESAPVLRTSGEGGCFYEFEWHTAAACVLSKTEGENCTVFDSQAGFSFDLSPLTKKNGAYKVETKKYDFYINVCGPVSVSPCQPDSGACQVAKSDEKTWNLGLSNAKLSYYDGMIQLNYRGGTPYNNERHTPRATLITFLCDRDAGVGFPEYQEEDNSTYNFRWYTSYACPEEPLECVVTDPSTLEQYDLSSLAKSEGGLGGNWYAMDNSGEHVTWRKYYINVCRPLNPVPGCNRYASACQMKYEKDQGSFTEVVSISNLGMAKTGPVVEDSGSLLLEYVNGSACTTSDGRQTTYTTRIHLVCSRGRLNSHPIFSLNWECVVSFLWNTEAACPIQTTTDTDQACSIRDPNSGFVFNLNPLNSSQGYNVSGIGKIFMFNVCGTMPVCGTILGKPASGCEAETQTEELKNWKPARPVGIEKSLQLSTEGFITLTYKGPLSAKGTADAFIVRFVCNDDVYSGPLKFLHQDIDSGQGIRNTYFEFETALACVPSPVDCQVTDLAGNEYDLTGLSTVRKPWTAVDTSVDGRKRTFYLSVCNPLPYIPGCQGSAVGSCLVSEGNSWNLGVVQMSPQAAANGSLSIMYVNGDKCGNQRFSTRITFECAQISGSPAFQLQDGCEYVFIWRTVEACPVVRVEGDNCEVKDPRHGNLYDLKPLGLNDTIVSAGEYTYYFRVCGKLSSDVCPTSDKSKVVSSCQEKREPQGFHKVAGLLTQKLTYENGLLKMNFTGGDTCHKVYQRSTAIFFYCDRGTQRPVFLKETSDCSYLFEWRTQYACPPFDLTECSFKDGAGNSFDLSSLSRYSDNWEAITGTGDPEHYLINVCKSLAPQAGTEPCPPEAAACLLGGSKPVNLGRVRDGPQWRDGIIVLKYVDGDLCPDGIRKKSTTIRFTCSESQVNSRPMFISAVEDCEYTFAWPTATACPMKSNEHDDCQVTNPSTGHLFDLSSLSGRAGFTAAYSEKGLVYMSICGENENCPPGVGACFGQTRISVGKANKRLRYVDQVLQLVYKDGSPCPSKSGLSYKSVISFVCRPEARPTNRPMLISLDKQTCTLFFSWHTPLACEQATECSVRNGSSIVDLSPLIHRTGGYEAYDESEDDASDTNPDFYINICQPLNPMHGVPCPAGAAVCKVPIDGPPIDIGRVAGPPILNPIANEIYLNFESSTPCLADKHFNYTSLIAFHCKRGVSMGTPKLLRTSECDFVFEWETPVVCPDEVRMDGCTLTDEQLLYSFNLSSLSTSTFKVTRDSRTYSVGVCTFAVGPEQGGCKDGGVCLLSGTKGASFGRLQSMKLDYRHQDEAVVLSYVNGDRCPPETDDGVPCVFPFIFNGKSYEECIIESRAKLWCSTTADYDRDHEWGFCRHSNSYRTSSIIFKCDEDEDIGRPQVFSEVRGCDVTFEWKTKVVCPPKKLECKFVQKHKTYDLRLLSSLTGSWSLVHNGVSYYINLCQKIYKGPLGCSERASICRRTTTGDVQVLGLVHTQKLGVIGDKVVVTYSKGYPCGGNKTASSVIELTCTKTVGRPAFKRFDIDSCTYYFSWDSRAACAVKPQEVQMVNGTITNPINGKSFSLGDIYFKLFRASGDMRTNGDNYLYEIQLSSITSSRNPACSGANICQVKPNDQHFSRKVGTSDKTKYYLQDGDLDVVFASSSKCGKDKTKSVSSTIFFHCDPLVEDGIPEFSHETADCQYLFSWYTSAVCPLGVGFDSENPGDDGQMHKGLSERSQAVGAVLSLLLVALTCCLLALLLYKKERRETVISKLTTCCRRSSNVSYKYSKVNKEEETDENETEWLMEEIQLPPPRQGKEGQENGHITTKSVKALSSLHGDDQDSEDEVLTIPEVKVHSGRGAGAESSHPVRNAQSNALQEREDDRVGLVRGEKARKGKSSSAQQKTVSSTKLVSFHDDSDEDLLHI
UniProt P11216: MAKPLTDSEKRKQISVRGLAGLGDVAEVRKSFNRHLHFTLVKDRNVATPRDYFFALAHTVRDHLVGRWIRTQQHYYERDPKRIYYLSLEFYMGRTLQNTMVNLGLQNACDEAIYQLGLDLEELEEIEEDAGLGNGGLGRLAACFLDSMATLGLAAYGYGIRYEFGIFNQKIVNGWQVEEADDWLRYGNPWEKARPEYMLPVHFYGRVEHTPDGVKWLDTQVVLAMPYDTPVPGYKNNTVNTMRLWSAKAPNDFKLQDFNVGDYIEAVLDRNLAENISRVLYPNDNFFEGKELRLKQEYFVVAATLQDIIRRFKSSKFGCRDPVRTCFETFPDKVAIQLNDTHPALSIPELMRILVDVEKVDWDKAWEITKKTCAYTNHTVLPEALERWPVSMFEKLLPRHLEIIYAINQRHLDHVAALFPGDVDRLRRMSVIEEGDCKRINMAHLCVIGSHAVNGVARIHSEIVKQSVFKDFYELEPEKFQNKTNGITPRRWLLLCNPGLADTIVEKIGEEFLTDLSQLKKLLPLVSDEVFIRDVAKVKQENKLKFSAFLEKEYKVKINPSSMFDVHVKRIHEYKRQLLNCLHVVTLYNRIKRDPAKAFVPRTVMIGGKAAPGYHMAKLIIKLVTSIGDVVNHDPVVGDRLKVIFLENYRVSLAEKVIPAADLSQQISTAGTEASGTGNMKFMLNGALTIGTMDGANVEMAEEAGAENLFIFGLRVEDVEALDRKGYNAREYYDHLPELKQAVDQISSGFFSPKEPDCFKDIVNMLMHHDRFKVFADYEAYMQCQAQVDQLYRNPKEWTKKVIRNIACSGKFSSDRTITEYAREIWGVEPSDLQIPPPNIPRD

Compound in this assay: COC(=O)C#Cc1ccccc1 [methyl 3-phenylpropiolate]
Briefly: log2 ratio of iodoacetamide-alkyne labeling of the cysteine site, DMSO over compound (competition); higher = stronger covalent engagement of the cysteine by the compound, active = 1 or more. The conditions noted are these: 500 µM; treatment time 1 h; system: HEK293T cell lysate. The gist of the method: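 HEK293T lysate at 2 mg/mL was treated with vehicle or electrophile (500 µM) for 1 h at ambient temperature, then labelled with iodoacetamide alkyne (1 h), clicked to sCIP-TMT reagents, pooled, digested with trypsin overnight at 37 °C, enriched on streptavidin and eluted with acid. Peptides were analysed by Orbitrap Eclipse LC-MS/MS with FAIMS and quantified in FragPipe, using duplicate channels and three replicates, with cysteines quantified in only one replicate excluded. The log2 competition ratio for each cysteine is the mean control-channel reporter intensity divided by the mean compound-channel reporter intensity.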
Regarding CYC1 C219 (UniProt P08574), the “log2 ratio of iodoacetamide-alkyne labeling” value (“log2 ratio” for short) was inactive: 0.0599.

As for LGALS1 C17 (UniProt P09382), the “log2 ratio” value is inactive: 0.195.

For the target PABPC1 C128 (UniProt P11940), the “log2 ratio” value is inactive: -0.0389.

Turning to IRF2 C83 (UniProt P14316), the “log2 ratio” value is inactive: -0.0958.

With UniProt P14618_C326, the “log2 ratio” value is inactive: -0.0946.

Turning to CBR1 C122 (UniProt P16152), the “log2 ratio” value is inactive: 0.0981.

As for ADH5 C97 (UniProt P11766), the “log2 ratio” value was inactive: 0.0974.

Consider U2AF1L5 C154 (UniProt P0DN76), for which the “log2 ratio” value was inactive: -0.16.

Consider MTHFD2 C145 (UniProt P13995), for which the “log2 ratio” value is inactive: 0.057.

As to EPRS C680 (UniProt P07814), the “log2 ratio” value was inactive: 0.00776.

As for XRCC5 C296 (UniProt P13010), the “log2 ratio” value was inactive: 0.00146.

Regarding UniProt P17812_C243, the “log2 ratio” value is inactive: -0.235.

As for UniProt P17812_C218, the “log2 ratio” value was inactive: -0.193.

With CNP C111 (UniProt P09543), the “log2 ratio” value was inactive: 0.0267.

With IGF2R C2232 (UniProt P11717), the “log2 ratio” value was active: 1.08.

GTF2F2 C116 (UniProt P13984): the “log2 ratio” value was inactive: 0.143.

As for GYS1 C575 (UniProt P13807), the “log2 ratio” value is inactive: 0.416.

As to EPRS C744 (UniProt P07814), the “log2 ratio” value is inactive: 0.153.

Turning to PYGB C496 (UniProt P11216), the “log2 ratio” value was inactive: -0.118.

With SP1 C68 (UniProt P08047), the “log2 ratio” value was inactive: 0.526.

Consider RPSA C148 (UniProt P08865), for which the “log2 ratio” value was inactive: 0.122.

As to DSP C57 (UniProt P15924), the “log2 ratio” value was inactive: 0.73.

For the origin of these results see the supplement of paper PMC11006884.
